Experimental findings from the supplement of paper PMC5770031 are described below.

This is one part of the list. Single values are uncertain here, since repeats match poorly.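 Flies heterozygous for the ATM8 allele over a balancer chromosome carrying normal ATM were mated with each other on treated food. Parents laid eggs for 5–6 days and the young then developed for about 12 days, so both parents and larvae ate the compound. The read-out is the share of all emerged adults that carry two ATM8 copies, compared with 2% DMSO control vials. The paper called compounds neutral at 10–20% such offspring, harmful below 10%, and helpful above 20%.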

This test relates to Drosophila melanogaster ATM8 (temperature-sensitive ATM allele). Put plainly: fraction of eclosed F1 progeny that are homozygous ATM8 (rescue of developmental lethality); higher = more rescue of ATM8 developmental lethality; extreme values may be limits of the assay. The conditions noted are these: compound concentration applied to food 0.2 mM; 21 °C.
Consider `COc1cc(C)c(C(=O)O)c(O)c1`, for which the “fraction of eclosed F1 progeny that are homozygous ATM8” value (from here on “fraction”) turned out to be 0.233.
To `CC(=O)C1=C(O)C=C2Oc3c(C(C)=O)c(O)c(C)c(O)c3C2(C)C1=O` (stereo in doubt) belongs 0.312; to `CO[C@H]1/C=C/O[C@@]2(C)Oc3c(C)c(O)c4c(O)c(c(/C=N/N5CCN(C)CC5)c(O)c4c3C2=O)NC(=O)/C(C)=C\C=C\[C@H](C)[C@H](O)[C@@H](C)[C@@H](O)[C@@H](C)[C@H](OC(C)=O)[C@@H]1C`, 0.0333.
In the case of `C[C@@H]1CC[C@H]2C(C)(C)[C@H]3C[C@@]12CC[C@@]3(C)O` it was 0; in that of `Cc1c(Cl)cccc1Nc1ccccc1C(=O)O`, 0.14.
As to `CCCSc1ccc2[nH]c(NC(=O)OC)nc2c1`, the “fraction” value is 0.0263.
In the case of `CC[C@@H](C(=O)O)[C@@H]1O[C@@H]([C@@H](C)[C@H](O)[C@H](C)C(=O)[C@H](CC)[C@H]2O[C@]3(C=C[C@@H](O)[C@]4(CC[C@@](C)([C@H]5CC[C@](O)(CC)[C@H](C)O5)O4)O3)[C@H](C)C[C@@H]2C)[C@@H](C)C[C@@H]1C` it was 0.0926; in that of `CCCc1ncc(C[n+]2ccccc2C)c(N)n1`, 0.0909.
To `C=CC(C)(O)CCC=C(C)CCC=C(C)C` (mixture of isomers) belongs 0.171.
Take `CC(C(=O)O)c1cccc(Oc2ccccc2)c1` (stereo not given): the “fraction” value came out at 0.157.
Turning to `COc1ccccc1-c1coc2cc(O)ccc2c1=O`, the “fraction” value was found to be 0.08.
In the case of `Oc1ccc(C2CNCCc3c2cc(O)c(O)c3Cl)cc1` (stereo not given) it was 0.
In the case of `CC(=O)N[C@@H](Cc1c[nH]c2ccccc12)C(=O)O` it was 0.295.
For `COC(=O)C[C@H]1C(C)(C)[C@@H](O)[C@@H]2CC3=C4C=C(OC)O[C@@H](c5ccoc5)[C@]4(C)CCC3[C@@]1(C)C2=O` (stereo partly drawn) [3-DEOXO-3beta-HYDROXYMEXICANOLIDE 16-ENOL ETHER], the “fraction” value turned out to be 0.0952.
With `COc1ccc2c(C)cc(=O)oc2c1`, the “fraction” value turned out to be 0.0476.
Turning to `COc1cc(OC)c2c(=O)cc(-c3ccccc3)oc2c1`, the “fraction” value is 0.263.
For `COc1cc(C(=S)N2CCOCC2)ccc1O`, the “fraction” value worked out at 0.069.
Take `COc1c2c(cc3c1OCO3)CC[N+](C)=C2`: the “fraction” value came to 0.0571.
In the case of `O=C1OC(c2ccc(O)cc2)(c2ccc(O)cc2)c2ccccc21` it was 0.231; in that of `C=CCc1ccc(O)c(OC)c1`, 0.184.
In the case of `CC(=O)OCC(=O)NCCCOc1cccc(CN2CCCCC2)c1` it was 0.0746; in that of `CCn1cc(C(=O)O)c(=O)c2cc(F)c(N3CCNCC3)nc21`, 0.0465; in that of `CC(CCC(=O)O)[C@H]1CCC2C3C[C@H](O)[C@@H]4C[C@H](O)CC[C@]4(C)C3CC[C@@]21C` (stereo partly drawn) [alpha-HYDROXYDEOXYCHOLIC ACID], 0.156.
In the case of `COc1cc(O)c(C(=O)/C=C/c2ccc(OC)c(O)c2)c(OC)c1` it was 0.179; in that of `Oc1ccc2c(c1)OC[C@]1(O)Cc3cc(O)c(O)cc3[C@H]21`, 0.196.
